In patent US20070218064A1:
Results are given in words; binding and its absence hold for the method and conditions named. Some binding calls cover weakened binding; strength is not graded here.

Chains of the proteins cited; added tags and fusions are not shown. Lines headed by an entry give the natural chain unless they say otherwise; changes in a name come on top.
UniProt P29460: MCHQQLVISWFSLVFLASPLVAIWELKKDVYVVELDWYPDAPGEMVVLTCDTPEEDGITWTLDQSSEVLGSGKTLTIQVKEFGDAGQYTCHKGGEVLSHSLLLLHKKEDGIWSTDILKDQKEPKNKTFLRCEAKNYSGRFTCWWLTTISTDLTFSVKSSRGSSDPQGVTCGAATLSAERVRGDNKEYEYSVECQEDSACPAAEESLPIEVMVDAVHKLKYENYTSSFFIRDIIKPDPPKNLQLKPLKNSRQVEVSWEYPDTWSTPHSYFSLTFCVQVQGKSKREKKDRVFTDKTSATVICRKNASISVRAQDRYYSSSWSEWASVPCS

Assays:
[1] = biological target: linked rhIL-23 with no His-tag (from R&D Systems) (human) (UniProt P29460); test: ELISA, antigen in solution to immobilized Fab
[2] = biological target: recombinant human IL-23 (hrIL-23), produced at Centocor (human) (UniProt P29460); test: ELISA, antigen in solution to immobilized Fab
[3] = biological target: recombinant human IL-23 (hrIL-23), produced at Centocor (human) (UniProt P29460); test: IL-23 binding, hrIL-23 subunit specificity (cytokine capture ELISA)

Row | Binder | binding [1] | binding [2] | binding [3]
1 | Fab MOR04205 (Fab, V domains shown) VH: QVQLVQSGAEVKKPGESLKISCKGSGYSFTNYWISWVRQAPGKGLEWMGWIRPGDSDTRYSPSFEGQVTISADKSISTAYLQWSSLKASDTAMYYCARHYYGMDYWGQGTLVTVSS VL: DIVLTQPPSVSGAPGQRVTISCSGSSSNIGSYYVNWYQQLPGTAPKLLIYGNTHRPSGVPDRFSGSKSGTSASLAITGLQSEDEADYYCQTYASLGPGEVFGGGTKLTVL | binds | binds | 
2 | Fab MOR04217 (Fab, V domains shown) VH: QVQLVESGGGLVQPGGSLRLSCAASGFTFSSYWITWVRQAPGKGLEWVSYISSSGSSTYYADSVKGRFTISRDNSKNTLYLQMNSLRAEDTAVYYCARGTFWSFGNYFANWGQGTLVTVSS VL: DIVLTQSPATLSLSPGERATLSCRASQSIFYNLAWYQQKPGQAPRLLIYGASNRATGVPARFSGSGSGTDFTLTISSLEPEDFATYYCQQYSSEPVTFGQGTKVEIK | binds | binds | 
3 | Fab MOR04649 (Fab, V domains shown) VH: QVQLVQSGAEVKKPGESLKISCKGSGYSFSNYWIGWVRQMPGKGLEWMGIIDPSNSYTNYSPSFQGQVTISADKSISTAYLQWSSLKASDTAMYYCARWYYKPFDVWGQGTLVTVSS VL: DIVLTQPPSVSGAPGQRVTISCTGSSSNIGSGYDVHWYQQLPGTAPKLLIYGNSKRPSGVPDRFSGSKSGTSASLAITGLQSEDEADYYCSSWTPSSVVFGGGTKLTVL | binds | binds | 
4 | Fab MOR04658 (Fab, V domains shown) VH: QVQLVESGGGLVQPGGSLRLSCAASGFTFSSFGMSWVRQAPGKGLEWVSNISSSGSSTYYADSVKGRFTISRDNSKNTLYLQMNSLRAEDTAVYYCARYWGTPYLMQFDNWGQGTLVTVSS VL: DIALTQPASVSGSPGQSITISCTGTSSDVGGYNSVSWYQQHPGKAPKLMIYSVSSRPSGVSNRFSGSKSGNTASLTISGLQAEDEADYYCSSYDTNKPLVVFGGGTKLTVL | binds | binds | 
5 | mAb MOR04649 (antibody, human IgG1, V domains shown) VH: QVELVQSGAEVKKPGESLKISCKGSGYSFSNYWIGWVRQMPGKGLEWMGIIDPSNSYTNYSPSFQGQVTISADKSISTAYLQWSSLKASDTAMYYCARWYYKPFDVWGQGTLVTVSS VL: DIVLTQPPSVSGAPGQRVTISCTGSSSNIGSGYDVHWYQQLPGTAPKLLIYGNSKRPSGVPDRFSGSKSGTSASLAITGLQSEDEADYYCSSWTPSSVVFGGGTKLTVL |  |  | binds
6 | mAb MOR04658 (antibody, human IgG1, V domains shown) VH: QVELVESGGGLVQPGGSLRLSCAASGFTFSSFGMSWVRQAPGKGLEWVSNISSSGSSTYYADSVKGRFTISRDNSKNTLYLQMNSLRAEDTAVYYCARYWGTPYLMQFDNWGQGTLVTVSS VL: DIALTQPASVSGSPGQSITISCTGTSSDVGGYNSVSWYQQHPGKAPKLMIYSVSSRPSGVSNRFSGSKSGNTASLTISGLQAEDEADYYCSSYDTNKPLVVFGGGTKLTVL |  |  | binds
7 | mAb MOR04205 (antibody, human IgG1, V domains shown) VH: QVELVQSGAEVKKPGESLKISCKGSGYSFTNYWISWVRQAPGKGLEWMGWIRPGDSDTRYSPSFEGQVTISADKSISTAYLQWSSLKASDTAMYYCARHYYGMDYWGQGTLVTVSS VL: DIVLTQPPSVSGAPGQRVTISCSGSSSNIGSYYVNWYQQLPGTAPKLLIYGNTHRPSGVPDRFSGSKSGTSASLAITGLQSEDEADYYCQTYASLGPGEVFGGGTKLTVL |  |  | binds
8 | mAb MOR04217 (antibody, human IgG1, V domains shown) VH: QVELVESGGGLVQPGGSLRLSCAASGFTFSSYWITWVRQAPGKGLEWVSYISSSGSSTYYADSVKGRFTISRDNSKNTLYLQMNSLRAEDTAVYYCARGTFWSFGNYFANWGQGTLVTVSS VL: DIVLTQSPATLSLSPGERATLSCRASQSIFYNLAWYQQKPGQAPRLLIYGASNRATGVPARFSGSGSGTDFTLTISSLEPEDFATYYCQQYSSEPVTFGQGTKVEIK |  |  | binds
